Measurements: US20040029777A1, “Pharmaceutical preparation for taste masking” (TAISHO PHARMACEUTICAL CO., LTD., priority 2002, published 2004)

Experiment: Sensory taste test of bitterness, panel of four members
Set-up: key: A: No bitter taste.; B: Almost no bitter taste.; C: Slightly bitter taste.; D: Bitterness taste.; E: Strong bitter taste
Conditions: kept in the mouth about 20 seconds

Ibuprofen-lysine Salt [Ibuprofen-lysine salt complex]
E: degree of bitterness, Panelist 1 | degree of bitterness, Panelist 2 | degree of bitterness, Panelist 3 | degree of bitterness, Panelist 4
